Results are given as percent effect.
The record does not define 0% and 100%; most values in the screen are far below 50% and negative numbers occur (in some assays of this library far below -100).
Compounds were drawn at random from those tested, without regard to their results.
A dash means the value is not listed here; it may have been measured.

Chains of the proteins cited; added tags and fusions are not shown. Residues count along the entry.
UniProt A4I591, 1-473: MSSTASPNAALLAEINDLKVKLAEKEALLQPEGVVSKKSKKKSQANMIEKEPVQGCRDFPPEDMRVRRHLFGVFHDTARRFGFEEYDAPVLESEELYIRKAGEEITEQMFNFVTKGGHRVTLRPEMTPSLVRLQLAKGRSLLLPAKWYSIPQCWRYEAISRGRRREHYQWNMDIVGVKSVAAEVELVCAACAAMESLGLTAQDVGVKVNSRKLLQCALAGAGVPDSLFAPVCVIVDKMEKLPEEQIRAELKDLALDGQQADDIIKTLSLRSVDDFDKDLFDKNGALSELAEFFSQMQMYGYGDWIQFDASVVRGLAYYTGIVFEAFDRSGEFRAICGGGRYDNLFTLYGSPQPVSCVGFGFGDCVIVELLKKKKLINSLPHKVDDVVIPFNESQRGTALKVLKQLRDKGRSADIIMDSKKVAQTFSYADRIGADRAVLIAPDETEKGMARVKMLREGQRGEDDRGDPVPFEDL
UniProt P9WNZ1, whole entry: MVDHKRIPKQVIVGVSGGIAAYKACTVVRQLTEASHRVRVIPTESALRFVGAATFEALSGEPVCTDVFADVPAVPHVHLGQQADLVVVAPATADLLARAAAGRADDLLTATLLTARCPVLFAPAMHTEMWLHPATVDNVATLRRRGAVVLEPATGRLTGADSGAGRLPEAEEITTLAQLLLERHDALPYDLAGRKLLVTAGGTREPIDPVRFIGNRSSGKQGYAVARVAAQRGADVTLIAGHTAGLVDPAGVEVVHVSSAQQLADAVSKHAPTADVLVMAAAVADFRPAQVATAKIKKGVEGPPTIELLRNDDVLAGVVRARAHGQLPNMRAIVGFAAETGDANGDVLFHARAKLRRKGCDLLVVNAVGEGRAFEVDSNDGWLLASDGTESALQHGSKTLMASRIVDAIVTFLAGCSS

LiHisRS: 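Histidine-tRNA ligase, Leishmania infantum (UniProt A4I591). Enzyme assay of histidyl-tRNA synthetase; the read-out is not stated. Concentration: 30 µM. Direction is inferred from retests: higher values go with stronger inhibition. The assay is labelled LdHisRS but filed under L. infantum. About 69,000 compounds were tested under these conditions; 0.6% (about 410) showed 50% or more at least once.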
Leishmania in macrophages: 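Cell assay of Leishmania donovani living inside macrophages; the read-out is not stated. Concentration: 30 µM. Direction is inferred from retests: higher values go with stronger inhibition. Size under these conditions: about 69,000 compounds, about 1,000 of them at 50% or above in at least one test.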
CoaBC: 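Enzyme assay of CoaBC with a phosphate dye (Biomol Green) read at 650 nm. Target: Coenzyme A biosynthesis protein CoaBC, Mycobacterium tuberculosis (UniProt P9WNZ1). Concentration: 30 µM. Direction is inferred from only a few compounds that gave an IC50; most scored high, so higher reads as stronger inhibition. Most strong results did not repeat in a second test. Of about 67,000 compounds tested this way, about 40 (0.06%) reached 50% or more in at least one test.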

With COc1c(Cl)cc(C(=O)NCc2n[nH]c(C)n2)cc1Cl the screen gave LiHisRS: 19.4%; Leishmania in macrophages: -4.303%; CoaBC: 8.434%. CCOCC1CN(CCN2CCCCC2)Cc2cnn(C)c21.O=C(O)C(F)(F)F.O=C(O)C(F)(F)F.O=C(O)C(F)(F)F (stereo unspecified) read Leishmania in macrophages: -1.081%. C1CN(CC2CC2)C(COCC2CC2)c2nnn(CC3CC3)c21.O=C(O)C(F)(F)F (stereo unspecified) gave Leishmania in macrophages: 7.435%. Result for CN(C)c1ncccc1CNC(=O)c1csc(Br)c1 was LiHisRS: 0%; Leishmania in macrophages: -17.46%; CoaBC: -0.9938%. For Cc1cc(C)cc(N2CCN(Cc3cccnc3)CC2=O)c1 the result was LiHisRS: 14.75%; Leishmania in macrophages: -14.89%; CoaBC: -4.978%.

For CC(=O)N1CCOCC2(C1)CN(S(C)(=O)=O)CCO2 (stereo unspecified) the result was LiHisRS: 8.621%; Leishmania in macrophages: 18.04%. With COc1ccc2c(c1)CCCC2CC(=O)NCC(=O)O (stereo unspecified) the screen gave LiHisRS: 1.961%; Leishmania in macrophages: 20.92%; CoaBC: -0.8589%. O=C(c1ccc(-n2cnnc2)cc1Cl)N1CCCC(O)(CO)CC1 (stereo unspecified) gave LiHisRS: 23.94%; Leishmania in macrophages: -19.26%. For c1ccc(N2CCC3(CCCN(c4ncccn4)C3)C2)nc1 (stereo unspecified) the result was LiHisRS: 24.47%; CoaBC: 10.82%. With O=C1CCCN1Cc1nnc2n1CCN(Cc1ccoc1)CC2 the screen gave LiHisRS: 0%; CoaBC: -0.7255%.

Cc1ncsc1C(=O)N1CCC(O)(Cn2c(C)cc3ccncc32)CC1 read LiHisRS: 12.86%; Leishmania in macrophages: 1.504%; CoaBC: -2.427%. CS(=O)(=O)CCC(=O)Nc1cc(Cl)c(Cl)cn1 gave LiHisRS: -0.8547%; Leishmania in macrophages: 2.342%; CoaBC: -7.143%. Cc1ccc(CN2CCCC3(CCC(=O)N3)CC2)s1 (stereo unspecified) gave LiHisRS: 21.36%; CoaBC: 2.29%. Result for CN(C)C[C@H]1C[C@@H]2CN(Cc3ccoc3)C[C@@H]2O1 was LiHisRS: 17.31%; CoaBC: 3.218%. Result for CC(Nc1cccc(CN2CCOC2=O)c1)C(=O)Nc1cccc(F)c1 (stereo unspecified) was LiHisRS: 17.59%; Leishmania in macrophages: 24.76%; CoaBC: 4.211%.

[H][C@@]12CS(=O)(=O)C[C@]1([H])N(C(=O)c1ccc(COC)o1)CCN2CC=C(C)C read Leishmania in macrophages: 1.457%. Result for CC1c2ncc(Cn3cncn3)n2CCN1C(=O)c1cscn1 (stereo unspecified) was LiHisRS: 11.11%; Leishmania in macrophages: 3.215%; CoaBC: 1.356%. With COCC(=O)NC(C)c1cccc(Br)c1 (stereo unspecified) the screen gave LiHisRS: 12.5%; Leishmania in macrophages: 10.85%; CoaBC: 4.689%. With Cc1nccc(-c2ccccc2)c1C(=O)N1CC[C@](C)(O)[C@H](C)C1 the screen gave LiHisRS: 32.39%; Leishmania in macrophages: -5.213%; CoaBC: 0.4577%. With O=S(=O)(c1cccc(Cl)c1)N1C[C@@H]2CCN[C@@H]2C1 the screen gave LiHisRS: 21.36%; CoaBC: 0.5089%.

With COc1ccc(C2=CCN(C(=O)CN(C)CC(C)C#N)CC2)cc1 (stereo unspecified) the screen gave LiHisRS: 10.11%; Leishmania in macrophages: 17.15%; CoaBC: 3.085%. With COCC(=O)N1CCC2(CCN(c3cnn(C)c3)C2=O)C1 (stereo unspecified) the screen gave LiHisRS: 6.452%; Leishmania in macrophages: 13.44%; CoaBC: -3.329%. With COC(=O)c1cc(OCC2CCC2)cc(C(=O)N[C@@H]2CCCNC2)c1 the screen gave LiHisRS: 10.84%; Leishmania in macrophages: 44.34%; CoaBC: 6.456%. Result for CCc1nc(C)c([C@H]2CN(C)C[C@@H]2C(=O)Nc2ccccc2F)[nH]1 was LiHisRS: 18.18%; Leishmania in macrophages: -6.639%; CoaBC: -9.665%. With OC1CCCN(CCNc2ncc(Cl)cc2F)C1 (stereo unspecified) the screen gave LiHisRS: 0%; Leishmania in macrophages: -6.716%; CoaBC: 0.4592%.

Result for CC(C)COC(C)C(=O)NCc1ccc(Cn2ccnc2)cc1 (stereo unspecified) was LiHisRS: 4%; Leishmania in macrophages: 26.47%; CoaBC: -8.678%. For Cc1cc(CN2CC[C@H]3C[C@H](C(=O)N(C)C)O[C@@H]3C2)no1 the result was LiHisRS: 17.65%; CoaBC: 2.445%. Result for CCCN(Cc1cccnc1)C(=O)C1CCNC1 (stereo unspecified) was LiHisRS: 10.26%; Leishmania in macrophages: -12.12%; CoaBC: -4.274%. CN1CCN(CC2CC2)C(=O)C12CCN(c1nccs1)CC2 gave LiHisRS: 22.41%; Leishmania in macrophages: 0.8768%. With [H][C@@]12CCC(=O)N(CCC3=CCCCC3)[C@]1([H])CCN(C1CCOCC1)C2 the screen gave Leishmania in macrophages: 9.145%.

With CCCc1nc(C)cc(N2CCNC(C(=O)NC3CC3)C2)n1 (stereo unspecified) the screen gave LiHisRS: 17.02%; Leishmania in macrophages: 10.07%; CoaBC: 2.73%. CCOCCCNC(=O)C(C)n1cc(Br)cn1 (stereo unspecified) read LiHisRS: 17.7%; Leishmania in macrophages: -71.26%; CoaBC: -0.8037%. For Cc1nc(CN2C(=O)CCC23CCN(c2ncccc2C)CC3)cs1 the result was LiHisRS: 16.67%; Leishmania in macrophages: 2.815%; CoaBC: -2.589%. Result for O=C(CCC(F)(F)F)NCC1CCCS1 (stereo unspecified) was LiHisRS: -1.075%; Leishmania in macrophages: -23.97%; CoaBC: 0.3654%.

4 of the entries, repeated:

| Compound | LiHisRS | Leishmania in macrophages | CoaBC |
|---|---|---|---|
| `CCOCC1CN(CCN2CCCCC2)Cc2cnn(C)c21.O=C(O)C(F)(F)F.O=C(O)C(F)(F)F.O=C(O)C(F)(F)F` (stereo unspecified) | - | -1.081 | - |
| `[H][C@@]12CCC(=O)N(CCC3=CCCCC3)[C@]1([H])CCN(C1CCOCC1)C2` | - | 9.145 | - |
| `COC(=O)c1cc(OCC2CCC2)cc(C(=O)N[C@@H]2CCCNC2)c1` | 10.84 | 44.34 | 6.456 |
| `Cc1cc(CN2CC[C@H]3C[C@H](C(=O)N(C)C)O[C@@H]3C2)no1` | 17.65 | - | 2.445 |

The values are deposited in ChEMBL (CHEMBL3988442, “University of Dundee, Small-Polar-MMV Screening Library” (2021)).